Results deposited as PubChem BioAssay AID1224826 (NIAID, 2016)
The deposit covers about 17,000 reagents; shown is a random part of them. In the full data, about 1,110 (6.6%) are marked active. 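Active means lowered or raised reporter signal; replicate intensities are raw and not normalised per plate.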 Further read-outs or replicates are left out here. Reagent sequences are not shown.

Aim: 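Genes that change LPS-induced Tnf promoter activity in mouse macrophages when knocked down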 (primary screen)
System: RAW264.7 G9 macrophages from mouse bearing reporters for p65 (GFP) and the Tnf promoter (mCherry)
Reagent: siRNA pool against mouse genes, 100 nM
Duration: 16 h of LPS stimulation, after 2 days of siRNA transfection
Conditions: bacterial lipopolysaccharide (Salmonella minnesota R595), 10 ng/ml
Read-out: 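Imaged Tnf reporter mCherry in nuclei, minus background, normalised per plate to the median and expressed as robust z-scores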
Direction: Tnf reporter robust z-score: higher = stronger Tnf promoter reporter signal after LPS; Tnf reporter intensity: higher = stronger Tnf promoter reporter signal
Call rule: 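a well counts as active at a score of -1.3 or below (Tlr4 knock-down control median) or above 3 (raised signal); controls and wells holding fewer than 50 cells are excluded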
Calls: active = Tnf reporter clearly lowered or raised; inactive = no clear change in Tnf reporter

no.	Gene	Tnf reporter robust z-score	fewer than 50 cells in well	Tnf reporter intensity, replicate 1	activity call
1	Kcnk12 (potassium channel, subfamily K, member 12)	2.79	enough cells in well	409	inactive
2	Tas2r113 (taste receptor, type 2, member 113)		fewer than 50 cells per well; well left out of calls	76.5	inactive
3	Eif5a2 (eukaryotic translation initiation factor 5A2)	-0.97	enough cells in well	112	inactive
4	Mvp (major vault protein)	-0.6	enough cells in well	194	inactive
5	Itch (itchy, E3 ubiquitin protein ligase)	0.9	enough cells in well	298	inactive
6	Slc34a3		fewer than 50 cells per well; well left out of calls	48	inactive
7	Gldn (gliomedin)	2.43	enough cells in well	397	inactive
8	Hacd4 (3-hydroxyacyl-CoA dehydratase 4)	0.78	enough cells in well	204	inactive
9	Tada1 (transcriptional adaptor 1)	-0.07	enough cells in well	185	inactive
10	Pfkp (phosphofructokinase, platelet)	0.67	enough cells in well	257	inactive
11	Dnajc3 (DnaJ heat shock protein family (Hsp40) member C3)	-0.04	enough cells in well	166	inactive
12	Celf4 (CUGBP, Elav-like family member 4)	0.13	enough cells in well	104	inactive
13	Cpt2 (carnitine palmitoyltransferase 2)	0.53	enough cells in well	267	inactive
14	Dck (deoxycytidine kinase)		fewer than 50 cells per well; well left out of calls	77.1	inactive
15	Tbc1d24 (TBC1 domain family, member 24)	-0.26	enough cells in well	107	inactive
16	Rnase6 (ribonuclease, RNase A family, 6)	0.2	enough cells in well	123	inactive
17	Litaf (LPS-induced TN factor)	1.45	enough cells in well	300	inactive
18	Midn (midnolin)	1.22	enough cells in well	201	inactive
19	Clcnkb (chloride channel, voltage-sensitive Kb)	-0.56	enough cells in well	138	inactive
20	Dynlt2b (dynein light chain Tctex-type 2B)	0.86	enough cells in well	350	inactive
21	Gm20558 (predicted gene, 20558)	-0.99	enough cells in well	118	inactive
22	Cdh23 (cadherin related 23 (otocadherin))	-0.78	enough cells in well	164	inactive
23	Cenpa (centromere protein A)	0.02	enough cells in well	251	inactive
24	Mxi1 (MAX interactor 1, dimerization protein)	0.04	enough cells in well	256	inactive

No new results follow: entries from further up.
no.	Gene	Tnf reporter robust z-score	fewer than 50 cells in well	Tnf reporter intensity, replicate 1	activity call
12	Celf4 (CUGBP, Elav-like family member 4)	0.13	enough cells in well	104	inactive
13	Cpt2 (carnitine palmitoyltransferase 2)	0.53	enough cells in well	267	inactive
